According to PubChem BioAssay AID2551 (National Center for Advancing Translational Sciences (NCATS), 2010):
Out of some 310,000 compounds screened, about 17,000 (5.5%) were called active. The inconclusive results got no clear call from the source; some entries with a clear call stand among them for comparison. Calls follow the shape of the dose curve; as a rule, active = well fitted inhibition curve with a large enough effect; inconclusive = small, poorly fitted or top-dose-only effect, or effect the other way; inactive = no such curve, though single readings can be large or run the other way. Potencies beside an inconclusive call are fits to weak or partial responses and may not hold up.

By UniProt entry, the sequences of proteins in these tests, tags left out. Where a name states a change or a piece, a line headed by the entry shows the natural chain unless it says otherwise.
UniProt P51450: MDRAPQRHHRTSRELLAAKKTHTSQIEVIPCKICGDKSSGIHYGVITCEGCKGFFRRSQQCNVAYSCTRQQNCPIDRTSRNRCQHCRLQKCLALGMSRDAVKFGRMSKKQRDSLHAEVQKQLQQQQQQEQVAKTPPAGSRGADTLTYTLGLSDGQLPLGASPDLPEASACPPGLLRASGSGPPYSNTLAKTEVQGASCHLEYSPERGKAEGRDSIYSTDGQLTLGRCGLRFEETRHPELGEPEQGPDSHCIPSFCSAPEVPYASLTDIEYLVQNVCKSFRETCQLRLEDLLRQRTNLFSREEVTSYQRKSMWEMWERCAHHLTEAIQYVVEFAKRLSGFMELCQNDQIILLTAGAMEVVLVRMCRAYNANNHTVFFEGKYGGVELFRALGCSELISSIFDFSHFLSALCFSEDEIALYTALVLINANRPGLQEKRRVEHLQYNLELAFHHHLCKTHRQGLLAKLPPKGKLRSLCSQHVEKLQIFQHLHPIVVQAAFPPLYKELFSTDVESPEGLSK

target: Nuclear receptor ROR-gamma (Mus musculus) (UniProt P51450); assay: qHTS for inhibitors of ROR gamma transcriptional activity; settings: Drosophila S2 Gal4-RORgamma UAS-luciferase reporter, 20 h; activity change, negative = inhibition: at 53.6 µM (top of the series); also: nearly all actives have a fitted effect of over 60% in size
Summary of the method: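 Schneider cells (Drosophila), stable Gal4 DBD–ROR gamma + UAS-luc; 1 hr cmpd preincubation; Cu2+ induction 700 uM final; 20 hr ambient; luminescence.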
% is scaled to controls: 0 for no effect and ±100 for the full control effect; potency is read from the fitted curve at half-maximal effect.

**Q.** `Cc1ccc(Cl)cc1N1CCN(S(=O)(=O)c2c(C)noc2C)CC1` was tested. Which Potency did it give?
**A.** The Potency was “inactive”.

**Q.** How did the Potency turn out when `COc1cc(C2NC(=O)CS2)cc(OC)c1OC` (stereo not drawn) was run?
**A.** Its Potency is “inactive”.

**Q.** `COc1ccc2cc(C(C)C(=O)Nc3cccc(S(=O)(=O)N(C)C)c3)ccc2c1` (stereo not drawn) was tested. Which Potency did it give?
**A.** The Potency was inconclusive: 28.2 µM [activator, single point].

**Q.** With `Cc1ccc(C(=O)NC(=S)Nc2ccc(CN3CCOCC3)cc2)cc1` as the compound, how does the Potency read?
**A.** The Potency was active: 14.1 µM.

**Q.** For `S=c1nc(-c2cccc(Br)c2)[nH][nH]1`, which Potency is on record?
**A.** Its Potency is inconclusive: 22.4 µM [inhibitor, single point].

**Q.** How did the Potency turn out when `Cn1cccc1/C=C1\CC(C(C)(C)C)C/C(=C\c2cccn2C)C1=O` (stereo not drawn) was run?
**A.** Its Potency is inconclusive: 5.62 µM [inhibitor, single point].

**Q.** For `CCN1C/C(=N\S(=O)(=O)/N=C2\CN(CC)C(=O)N2CC)N(CC)C1=O`, which Potency is on record?
**A.** Its Potency is active: 10 µM.

**Q.** How did the Potency turn out when `COc1cccc(-c2cncnc2NCc2cccs2)c1` was run?
**A.** Its Potency is “inactive”.

**Q.** With `Cc1occc1C(=O)NNC(=S)NC(=O)COc1ccc(Cl)cc1Cl` as the compound, how does the Potency read?
**A.** The Potency was active: 15.8 µM.

**Q.** For `O=C(c1ccccc1)N(Cc1ccc(F)cc1)C1CCS(=O)(=O)C1` (stereo not drawn), which Potency is on record?
**A.** Its Potency is inconclusive: 10 µM [activator, partial curve].

**Q.** Which Potency does the source give for `C[C@@H](CO)[C@H](/C=C/c1ccccc1)CCO[Si](c1ccccc1)(c1ccccc1)C(C)(C)C` here?
**A.** The Potency was “inactive”.

**Q.** `CCCC/C=C/[C@H](c1ccccc1)[C@H](CO)Cc1ccccc1` was tested. Which Potency did it give?
**A.** The Potency was “inactive”.

**Q.** With `Nc1c(N(CCO)C(=O)COc2ccc(Cl)cc2)c(=O)[nH]c(=O)n1Cc1ccccc1` as the compound, how does the activity change, negative = inhibition read?
**A.** Its activity change, negative = inhibition is inactive: -22.7% [at 10 µM].

**Q.** `S=C(NCCc1c[nH]c2ccccc12)NC1CCCCC1` was tested. Which Potency did it give?
**A.** The Potency was active: 14.1 µM.

**Q.** For `O=C1OC(c2cccc([N+](=O)[O-])c2)C2(CCCC2)C(=O)C12CCCCC2` (stereo not drawn), which Potency is on record?
**A.** The Potency was inconclusive: 22.4 µM [activator, single point].

**Q.** For `O=C1/C(=C/c2cccnc2)Oc2cc(OS(=O)(=O)c3ccc(Cl)cc3)ccc21`, which Potency is on record?
**A.** Its Potency is “inactive”.

**Q.** How did the Potency turn out when `Cc1cc(C)n(-c2ccc(C(=O)Nc3nc4ccccc4s3)cc2)n1` was run?
**A.** Its Potency is inconclusive: 25.1 µM [inhibitor, single point].

**Q.** Which Potency does the source give for `CCCOc1ccc(Br)cc1/C=N/O` here?
**A.** Its Potency is inconclusive: 35.5 µM [inhibitor, single point].

**Q.** For `CC(=O)Nc1ccc2nc(-c3ccccn3)[nH]c2c1`, which Potency is on record?
**A.** Its Potency is active: 10 µM.

**Q.** For `Cc1ccc(S(=O)(=O)Nc2c(Cl)c(Cl)c(O)c3ccccc23)cc1`, which Potency is on record?
**A.** The Potency was active: 17.8 µM.

**Q.** For `CN(C(=O)COC(=O)c1nc(Cl)c(Cl)c(Cl)c1Cl)C1CCS(=O)(=O)C1` (stereo not drawn), which Potency is on record?
**A.** Its Potency is inconclusive: 20 µM [inhibitor, single point].

**Q.** With `C/C(=N\Nc1ccc(Cl)cc1)c1ccccn1` as the compound, how does the Potency read?
**A.** The Potency was inconclusive: 2.82 µM [activator, full curve].

**Q.** `O=C(/C=C\Nc1cccc(F)c1)c1ccc2c(c1)OCO2` was tested. Which Potency did it give?
**A.** Its Potency is inconclusive: 0.224 µM [inhibitor, full curve, poor fit].

**Q.** With `CCN1CCN(Cc2ccc(NC(=O)c3cc(NC(=O)c4nccnc4N)cc(OC)c3)cc2C(F)(F)F)CC1` as the compound, how does the Potency read?
**A.** The Potency was “inactive”.

**Q.** `CN(C)S(=O)(=O)c1ccc2oc(SCC(N)=O)nc2c1` was tested. Which Potency did it give?
**A.** The Potency was “inactive”.

**Q.** Which Potency does the source give for `CC(C)c1csc(CN2CCN(Cc3ccc(F)c(F)c3)C(CCO)C2)n1` (stereo not drawn) here?
**A.** The Potency was inconclusive: 3.55 µM [activator, full curve].

**Q.** For `CC(OCc1ccccc1)C(NC(=O)OC(C)(C)C)C(=O)NC1COC2CC(n3cc(F)c(=O)[nH]c3=O)OC12` (stereo not drawn), which Potency is on record?
**A.** Its Potency is “inactive”.

**Q.** For `CC(C)c1cc(C(=O)Nc2ccc3c(c2)OCO3)no1`, which Potency is on record?
**A.** Its Potency is inconclusive: 35.5 µM [inhibitor, single point].

**Q.** Which Potency does the source give for `CC(C(=O)NC1CCCC1)N(Cc1ccco1)C(=O)c1snc(C(=O)NC2CCCC2)c1N` (stereo not drawn) here?
**A.** The Potency was inconclusive: 35.5 µM [inhibitor, single point].

**Q.** Which Potency does the source give for `C=CCN(C(=O)Cc1cccs1)c1nc(-c2ccc(S(C)(=O)=O)cc2)cs1` here?
**A.** The Potency was inconclusive: 31.6 µM [activator, single point].

**Q.** For `O=C(Nc1ccccc1)c1ccc(-c2ccc(Br)cc2)o1`, which Potency is on record?
**A.** The Potency was inconclusive: 11.2 µM [activator, partial curve].

**Q.** With `CN(C(=O)COC(=O)c1ccc2c(c1)NC(=O)CS2)C1CCS(=O)(=O)C1` (stereo not drawn) as the compound, how does the Potency read?
**A.** The Potency was “inactive”.

**Q.** With `CN(CC(=O)Nc1ccccc1N1CCOCC1)S(=O)(=O)c1ccc(Cl)cc1` as the compound, how does the Potency read?
**A.** Its Potency is “inactive”.

**Q.** `CSc1c(CC(=O)Nc2ccccc2C(F)(F)F)n(Cc2ccccc2)c2ccccc12` was tested. Which Potency did it give?
**A.** The Potency was inconclusive: 22.4 µM [inhibitor, single point].

**Q.** With `Cc1ccnc(NC(=O)CCNC(=O)c2ccccc2Cl)c1` as the compound, how does the Potency read?
**A.** The Potency was inconclusive: 5.01 µM [activator, partial curve, poor fit].

**Q.** With `CCOC(=O)c1ccc(Oc2nc(NC(C)(C)C)nc(N(C)C)n2)cc1` as the compound, how does the Potency read?
**A.** Its Potency is “inactive”.

**Q.** For `COC(=O)[C@H](CCSC)NC(=O)NCc1ccccn1`, which Potency is on record?
**A.** Its Potency is “inactive”.

**Q.** How did the Potency turn out when `COc1ccccc1-c1nc(S(=O)(=O)c2ccccc2)c(N2CCCCC2)o1` was run?
**A.** Its Potency is “inactive”.

**Q.** For `CCCCCCCCCCCCCCCCN`, which Potency is on record?
**A.** The Potency was “inactive”.

**Q.** With `CO/N=C/c1ccc(N2CCN(C(=O)c3ccc(F)cc3)CC2)c([N+](=O)[O-])c1` as the compound, how does the Potency read?
**A.** Its Potency is inconclusive: 35.5 µM [inhibitor, single point].

**Q.** Which Potency does the source give for `Cc1cccc2sc(NC(=O)C3CCCN(S(=O)(=O)c4cccc5nonc45)C3)nc12` (stereo not drawn) here?
**A.** Its Potency is inconclusive: 0.01 µM [activator, full curve].

**Q.** Which Potency does the source give for `CCCn1c(=N)n(CC(=O)c2ccc(Cl)cc2)c2ccccc21` here?
**A.** Its Potency is inconclusive: 35.5 µM [inhibitor, single point].

**Q.** `CCOc1ccccc1NS(=O)(=O)c1ccc(-c2cnc(C3CC3)o2)cc1` was tested. Which Potency did it give?
**A.** Its Potency is inconclusive: 14.1 µM [activator, single point].

**Q.** How did the Potency turn out when `Cc1ccc(-n2ncc3c2CCCC3NC(=O)c2csnn2)cc1C` (stereo not drawn) was run?
**A.** Its Potency is inconclusive: 4.47 µM [activator, full curve, poor fit].

**Q.** How did the Potency turn out when `Cc1[nH]n(-c2ccccc2)c(=O)c1N=Nc1cccc(Cl)c1` was run?
**A.** The Potency was “inactive”.

**Q.** With `COc1cccc(CSc2nc3sc(C)c(C)c3c(=O)n2Cc2ccco2)c1` as the compound, how does the Potency read?
**A.** The Potency was inconclusive: 7.08 µM [activator, partial curve].

**Q.** How did the Potency turn out when `S=C(Nc1ccccc1)N1CCN(C/C=C/c2ccccc2)CC1` was run?
**A.** The Potency was active: 11.2 µM.

**Q.** `COc1ccc(Nc2nnc(SCC(=O)Nc3ccc4[nH]c(=O)[nH]c4c3)s2)cc1` was tested. Which Potency did it give?
**A.** The Potency was inconclusive: 11.2 µM [inhibitor, single point].
